Values quoted from earlier work as cited in publication PMC4481117 (Molecular Pain, 2015).

Details: estimated; cited from earlier work

In the case of CC[C@H](C)[C@H](NC(=O)[C@H](CCCNC(=N)N)NC(=O)[C@H](CCCNC(=N)N)NC(=O)[C@H](CC(C)C)NC(=O)[C@H](Cc1ccccc1)NC(=O)CNC(=O)CNC(=O)[C@@H](N)Cc1ccc(O)cc1)C(=O)N[C@@H](CCCNC(=N)N)C(=O)N1CCC[C@H]1C(=O)N[C@@H](CCCCN)C(=O)N[C@@H](CC(C)C)C(=O)N[C@@H](CCCCN)C(=O)N[C@@H](Cc1c[nH]c2ccccc12)C(=O)N[C@@H](CC(=O)O)C(=O)N[C@@H](CC(N)=O)C(=O)N[C@@H](CCC(N)=O)C(=O)O [Dyn A], the “Concentration of Dyn A within dense core vesicles of neurons” value is listed as 1 mM.
